# Screening data, single-dose tests

By UniProt entry, the sequences of proteins in these tests, tags left out. Residues count along the entry.
UniProt A4I591, 1-473: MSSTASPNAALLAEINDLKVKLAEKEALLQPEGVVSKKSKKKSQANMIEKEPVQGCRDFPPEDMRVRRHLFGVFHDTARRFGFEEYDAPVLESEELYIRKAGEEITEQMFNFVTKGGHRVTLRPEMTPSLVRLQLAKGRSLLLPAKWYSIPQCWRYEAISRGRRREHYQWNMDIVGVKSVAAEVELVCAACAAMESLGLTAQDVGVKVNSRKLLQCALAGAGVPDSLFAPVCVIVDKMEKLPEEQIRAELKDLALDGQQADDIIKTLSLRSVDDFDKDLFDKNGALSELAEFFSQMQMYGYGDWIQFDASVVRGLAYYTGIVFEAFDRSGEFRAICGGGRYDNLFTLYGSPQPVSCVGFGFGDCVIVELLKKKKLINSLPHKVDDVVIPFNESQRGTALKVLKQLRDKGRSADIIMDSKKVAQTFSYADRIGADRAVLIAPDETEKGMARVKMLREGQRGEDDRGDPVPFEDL
UniProt Q4DA54, 1-478: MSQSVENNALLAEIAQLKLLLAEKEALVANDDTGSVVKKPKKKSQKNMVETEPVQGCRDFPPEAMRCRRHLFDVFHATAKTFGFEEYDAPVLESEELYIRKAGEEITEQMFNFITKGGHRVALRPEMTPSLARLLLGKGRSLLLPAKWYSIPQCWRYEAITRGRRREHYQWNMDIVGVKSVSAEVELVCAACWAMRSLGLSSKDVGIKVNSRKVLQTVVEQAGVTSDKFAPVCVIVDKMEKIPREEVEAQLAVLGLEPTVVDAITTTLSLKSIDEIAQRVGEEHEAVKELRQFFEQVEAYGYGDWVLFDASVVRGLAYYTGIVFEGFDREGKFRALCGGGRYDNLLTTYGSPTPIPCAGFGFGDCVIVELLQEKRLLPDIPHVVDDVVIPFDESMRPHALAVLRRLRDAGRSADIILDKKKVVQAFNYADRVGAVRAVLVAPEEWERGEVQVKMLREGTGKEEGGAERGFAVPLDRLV

Values are the deposited “Percent Effect”, in %.
The controls that fix the scale are not given in the record; negative values are as filed.
This is an unselected part of the compounds tested.

A: 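Histidine-tRNA ligase, Leishmania infantum (UniProt A4I591). Enzyme assay of histidyl-tRNA synthetase; the read-out is not stated. Compounds at 30 µM. Higher reads as stronger inhibition (inferred: compounds with an IC50 in retests scored well above the rest). The assay is labelled LdHisRS but filed under L. infantum. Of about 69,000 compounds tested this way, about 410 (0.6%) reached 50% or more in at least one test.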
B: 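Enzyme assay of histidyl-tRNA synthetase; the read-out is not stated. Target: Histidine-tRNA ligase, Trypanosoma cruzi CL Brener (UniProt Q4DA54). Compounds at 30 µM. Higher reads as stronger inhibition (inferred: compounds with an IC50 in retests scored well above the rest). About 69,000 compounds were tested under these conditions; 0.045% (about 31) showed 50% or more at least once.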

structure	A	B
O=C(NC1CCN(c2cccc(C(F)(F)F)n2)CC1)C1CC1	6.452%	7.143%
COc1ccccc1C(C(=O)O)N1CCCN(C2CCCC2)CC1 (stereo unspecified)	30.3%	2.174%
O=C(C1CCCC1)N1CCC(C2CCN(Cc3ccc(Cl)cc3)C2)CC1 (stereo unspecified)	8.219%	3.279%
Cc1cnn(C2CN(CC(O)COCc3ccc4c(c3)OCO4)C2)c1 (stereo unspecified)	14.52%	1.149%
CC(C)CN(C)Cc1c[nH]nc1-c1ccc(F)cc1F	10.64%	12.14%
Cc1ccc(NC(=O)CSCc2cccnc2)nc1	25.64%	2.809%
O=C(NCC1CC1)[C@@H]1C[C@@H]2OCCN[C@@H]2C1	14.04%	3.279%
CCC(CO)NC(=O)Cc1ccc(NC(=O)CC2=CCCCC2)cc1 (stereo unspecified)	13.68%	5.946%
N#Cc1cc(NS(=O)(=O)CC2CCCCO2)ccc1F (stereo unspecified)	13.56%	4.39%
Cn1cc(N2CCC(NC(=O)c3c(F)cccc3F)C2=O)cn1 (stereo unspecified)	0%	4.237%
CCC(O)CN(C)Cc1nnc2ccccn12 (stereo unspecified)	18.42%	-1.676%
CC1CN(C)CCN1Cc1cccc(C(=O)NCc2ccco2)c1 (stereo unspecified)	16.67%	3.448%
O=C(CCCOCc1ccccc1)N1CCCC(c2ncc[nH]2)C1 (stereo unspecified)	13.25%	4.878%
Cc1ccccc1C(=O)NCC(O)c1ccc(F)c(F)c1 (stereo unspecified)	9.6%	0%
CC(C)c1nc(S(=O)(=O)N(C)c2ccc(F)cc2)c[nH]1	3.419%	1.622%
O=C(O)c1ccccc1-c1ccc(CN2CCC(CO)C2)cn1 (stereo unspecified)	11.43%	3.448%
CCC(=O)N1CCCCC1c1nc(O)c2c(n1)CN(C(=O)C1CC1)CC2 (stereo unspecified)	11.51%	4.215%
O=C(NC1CCOCC1)c1cccc(C2CCCNC2)c1 (stereo unspecified)	13.25%	2.488%
Cn1ncc2c(=O)[nH]c(CN(Cc3ccco3)C3CCCC3)nc21	21.92%	3.053%
CCCN1CCC(CC(=O)N(C)C(C)c2cncs2)CC1 (stereo unspecified)	13.54%	-1.657%
CC(=O)N1CCC(C)(c2nc(C)no2)CC1	9.859%	2.308%
c1ccc(Cc2noc(CN3CCCCC3Cn3cncn3)n2)cc1 (stereo unspecified)	10.71%	4.142%
COCCCN1CC2(CCCCN2C(=O)COC)CC1=O (stereo unspecified)	5.172%	2.532%
CCc1nnsc1C(=O)NCCC1CN(C(C)C)CCO1 (stereo unspecified)	10%	9.639%
Cc1ccc(S(=O)(=O)N(C)c2ccsc2C(=O)NCC(C)C)cc1	12.33%	4%
O=C1NCCN1C1CCCN(Cc2nnc(-c3ccc(F)cc3)o2)C1 (stereo unspecified)	15.38%	2.682%
CCCNC(=O)CSc1nnc2[nH]c(=O)cc(CC)n12	15.38%	-1.653%
CCc1cc(NCc2cc(CC(C)C)on2)n2nccc2n1	8.571%	10.31%
CCN(CC)C1CCN(C(=O)c2cc(-n3cccn3)ccc2Cl)CC1	8.571%	7.28%
Cc1ncc(S(=O)(=O)Nc2ccnn2C(C)C)[nH]1	8.571%	3.061%
Cn1cccc1C(=O)N1C[C@H](OCC2CCOCC2)[C@H]2COC[C@H]21	-166%	-105.2%
CCCc1nc(CNC2(c3nccs3)CCCC2)cs1	15.05%	5.699%
CC(C)NC(=O)Nc1ccccc1CN1CCOCC1	9.836%	5.814%
CCNC(=O)[C@@H]1C[C@@H](N)CN1Cc1ccc(-c2ccccc2C#N)o1	12.82%	9.551%
CN1CCN(CC2CC2)C(=O)c2cnc(N3CCOCC3)nc21	20%	12.43%
CC(C)n1ccnc1C1CCN(C(=O)C2COc3ccccc3O2)CC1 (stereo unspecified)	19.05%	3.306%
CC(C)Nc1nc(N2CCOCC2)nc2c1CN(Cc1ccoc1)CC2	19.71%	6.011%
CC(C)c1cccc(-n2cc(O)c(C(N)=O)n2)c1	17.78%	10.71%
Cc1cccc(CN2C(=O)C[C@H]3[C@@H]2CCN3Cc2ccccn2)n1	24.39%	0.7519%
CNC(=O)[C@@H]1[C@@H](c2ccccc2)CN2CCN(Cc3ccccn3)C[C@H]12	8.163%	4.494%
CN1CCCC1c1cncc(C(=O)NCCN2CCCCC2)n1 (stereo unspecified)	12.77%	8.527%
CCc1nnc(CNCC2CCN(CC(O)c3ccccc3)CC2)o1 (stereo unspecified)	16.22%	3.383%
CCn1c(C)cc(C(=O)NCc2ccc(CS(C)(=O)=O)cc2)c1C	15.38%	0.5405%
COc1ccc(CN2CCn3c(CO)nnc3C2)cc1CN1CCCC1	15.79%	3.731%
CN(Cc1nnc(-c2ccco2)o1)C1CCCN(c2cccnn2)C1 (stereo unspecified)	0%	0%
COC(=O)c1ccc(CCn2cnc(C#N)n2)cc1	-2.073%	2.762%
CNS(=O)(=O)Cc1ccc(CNc2cncc(-n3cccn3)n2)cc1	13.7%	0.7634%
CC(=O)N1C[C@H]2CCCN(S(=O)(=O)c3ccc(Cl)s3)[C@H]2C1	8.511%	0.7752%
CC(C)N1CCC2(C=C(C(=O)NC3CC3)c3ccccc32)CC1	-1.923%	-2.913%
Cc1noc(C)c1CN1C[C@H](OCC2CC2)[C@H]2COC[C@H]21	10.53%	2.299%
Cc1ccn(CCNC(=O)C2(C)CC(c3ccccc3)=NO2)n1 (stereo unspecified)	8.511%	6.202%
Cc1ccc(F)c(N2CCCC(Nc3nccn4cnnc34)C2=O)c1 (stereo unspecified)	12.2%	7.212%
COc1cccc(OCCCc2cncc(C(N)=O)c2)c1	14.47%	7.609%
CN(C(=O)NCCCNc1ccccn1)C1CCS(=O)(=O)C1 (stereo unspecified)	19.05%	-2.02%
O=C(NCc1ccccn1)[C@H]1COC[C@H]2CN(c3ncccn3)C[C@H]21	15.79%	2.299%
Cn1cc(C2CCCN2C(=O)CCCc2nc3ccccc3[nH]2)cn1 (stereo unspecified)	16.67%	0%
COc1cccc(-c2nc(CNC(C)Cn3cccn3)cs2)c1 (stereo unspecified)	11.32%	5.833%
O=C(O)[C@@H]1CN(C(=O)CC2CCCC2)C[C@H]1c1ccc(F)cc1	12.86%	4.255%
COCC(C)NC(=O)c1nnn(-c2ccc(OC)cc2)n1 (stereo unspecified)	11.11%	-2.222%
COc1cccc(-c2n[nH]c3c2CN(C(=O)c2cc(C)n(C)n2)CC3)c1	0%	4.255%
CC(=O)N1CCN(CC2CCOc3ccccc3C2)CC1 (stereo unspecified)	4.808%	8.943%
CN1CCCC(c2cccc(CCC(N)=O)n2)C1 (stereo unspecified)	7.292%	7.447%
CCOCc1nn(C)c2c1CN(Cc1cccs1)CC2	6.306%	2.21%
O=C(C1CN(c2ncc(F)cn2)CC12CCOCC2)N1CCOCC1 (stereo unspecified)	23.08%	2.674%
COCCN1C[C@@H]2CN(C(=O)[C@H]3CCCO3)C[C@@H]2C1=O	17.07%	0%
Cc1cnn(CC2CCCN2Cc2nnc(C3CC3)n2C)c1 (stereo unspecified)	6.838%	3.134%
Cc1nc(CNC(=O)N2CCN(c3ccc(Cl)cn3)CC2)sc1C	9.91%	6.667%
Cn1cccc1C(=O)N1C[C@H]2CN(Cc3cccc(F)c3)C[C@H]2C1	15.38%	5.825%
CC(C)CN(CC(=O)O)C(=O)c1ccc(F)cc1	15.22%	4.95%
CN(C)S(=O)(=O)N1C[C@@H]2CC[C@H](C1)N(C/C=C/c1ccc(F)cc1)C2	11.76%	8.995%
Cc1ccc2c(c1)c(CNC(=O)C1CCN(C(C)C)CC1)nn2C	17.31%	9.167%
Cc1ccoc1C(=O)N1C[C@H](OCc2cccnc2)[C@H]2OCCC[C@H]21	16.36%	5.785%
C[C@@H]1CN(c2nc3c(cc2C(N)=O)CCC3)CC[C@@]1(O)C1CCC1	10.34%	4.124%
Cc1occc1C(=O)NCC1OCCc2cn(C)nc21 (stereo unspecified)	19.23%	13.97%

Some entries from above, unchanged:

| structure | A | B |
|---|---|---|
| `Cc1noc(C)c1CN1C[C@H](OCC2CC2)[C@H]2COC[C@H]21` | 10.53% | 2.299% |
| `c1ccc(Cc2noc(CN3CCCCC3Cn3cncn3)n2)cc1` (stereo unspecified) | 10.71% | 4.142% |
| `COc1cccc(-c2nc(CNC(C)Cn3cccn3)cs2)c1` (stereo unspecified) | 11.32% | 5.833% |
| `COCCCN1CC2(CCCCN2C(=O)COC)CC1=O` (stereo unspecified) | 5.172% | 2.532% |
| `Cc1nc(CNC(=O)N2CCN(c3ccc(Cl)cn3)CC2)sc1C` | 9.91% | 6.667% |

The values are deposited in ChEMBL (CHEMBL3988442, “University of Dundee, Small-Polar-MMV Screening Library” (2021)).